The results in this text go back to publication PMC12040169 (PLOS Biology, 2025).

Molecules are shown by their SMILES. This is one part of the list.

The experiment has as its system T1, CTL2-GFP (C. trachomatis L2/434/Bu, GFP-expressing).
T1 construct: L2/434/Bu, GFP-expressing
More on the design: species or system HeLa; Intracellular C. trachomatis growth in HeLa cells, bulk GFP fluorescence relative to DMSO. To be noted: bulk GFP, single well; 28.5 h, 10 µM; inhibitor.
Regarding `COc1ccc(C(=O)CSc2nnc(-c3ccc4c(c3)OCO4)n2-c2ccccc2)cc1` [CBK263592], the “% of control remaining” value was found to be 100%.
Next, `Cc1noc(C)c1S(=O)(=O)Nc1c(C(=O)N2CCN(C)CC2)[nH]c2ccccc12` [CBK050057]: 107.823%; `CC(O)c1nc2ccccc2n1C` (stereo not drawn) [CBK115560]: 170.731%.
Next, `COc1ccc(NS(=O)(=O)c2ccc(Cl)c(C(=O)Nc3ccccc3C(=O)O)c2)cc1` [CBK263209]: 64.7488%.
As to `CCN(CC)C(=O)c1sc2ncccc2c1NS(=O)(=O)c1ccc(C)c([N+](=O)[O-])c1` [CBK050618], the “% of control remaining” value was determined as 101.606%.
Next, `CC(C)NC(=O)C1CC2CCC1CC21NC(=O)c2ccccc2O1` (stereo not drawn) [CBK284353]: 125.645%; `COc1ccccc1C(CNC(=O)Nc1cc(C)on1)N1CCCC1` (stereo not drawn) [CBK304586]: 117.514%.
For `O=C(NCCCNC1CCc2[nH]c3ccccc3c2C1)c1cccc(Br)c1` (stereo not drawn) [CBK107130T], the “% of control remaining” value amounted to 89.0282%.
Next, `Cn1nccc1NC(=O)Nc1ccc(CN2CCOC2=O)cc1` [CBK306279]: 149.711%.
Regarding `COc1cc(F)cc(OC2CCNCC2)c1NC(=O)C1CCC1` [CBK045912T], the “% of control remaining” value stood at 104.203%.
Next, `COc1ccc(C2C(C(=O)Nc3ccc(C)cc3)=C(C)Nc3ncnn32)cc1OC` (stereo not drawn) [CBK294416]: 138.269%; `Cc1cc(C)nc(Nc2ccc(C3CCCN(C(=O)C(C)(C)c4cccc(F)c4)C3)nc2)n1` (stereo not drawn) [CBK286007]: 101.627%; `COc1ccc(C2(NCc3ccc(N4CCCC4=O)cc3)CC2)cc1` [CBK282834]: 99.5888%.
On to `CCCn1c(C)cc(-c2csc(NC(=O)CCn3c(-c4cccs4)n[nH]c3=S)n2)c1C` [CBK295326], for which the “% of control remaining” value worked out at 143.297%.
Next, `O=C(O)Cc1ccc(NC(=O)c2cccc(NC(=O)c3ccco3)c2)cc1` [CBK268606]: 102.74%; `COc1ccccc1N(CC(O)CN1CCCC1)S(=O)(=O)c1ccccc1` (stereo not drawn) [CBK264829]: 90.766%; `CCOC(=O)N1CCN(Cc2nc3c(c(=O)n(C)c(=O)n3C)n2Cc2ccccc2C)CC1` [CBK269325]: 110.305%.
Next, `Nn1cnn2c(SCCSC3CCCCC3)nnc12` [CBK263192]: 115.682%.
Next, `CCOc1ccc(NC(=O)N(Cc2cnn(C)c2)CC(C)C)cc1C#N` [CBK307636]: 134.872%.
For the compound `Cc1ccc(S(=O)(=O)N(CC(=O)NCc2ccco2)c2cc(C)cc(C)c2)cc1` [CBK263982], the “% of control remaining” value was 115.439%.
Next, `CCn1c(COc2ccc(C(=O)O)cc2)nc2ccccc21` [CBK267647]: 136.181%; `COc1ccccc1C(C)CN(C)C` (stereo not drawn) [CBK011948C]: 137.669%.
Next, `Cc1cc(Cl)ccc1CNC(=O)C1=CC(=O)CC(C)(C)O1` [CBK153282]: 102.589%.
For `Cc1ccc(CNc2c(-c3ccco3)nc3cnccn23)cc1` [CBK283693], the “% of control remaining” value is given as 149.041%.
Consider `O=C(c1ccccc1)N1CCCC(c2nnc(-c3cccs3)o2)C1` (stereo not drawn) [CBK283059], for which the “% of control remaining” value is reported as 67.0626%.
Next, `COc1cc2c(cc1OC)CN(CCN1CCCCC1)CC2` [CBK126439]: 100%; `N#C/N=C(/Nc1cccnc1)Oc1ccccc1` [CBK012612]: 109.486%; `Cc1nnc(CN(CC2CCCO2)C2CCC(C)CC2)o1` (stereo not drawn) [CBK304824]: 133.824%.
Take `Nc1ncc(-c2cc(C(F)(F)F)cc(C(F)(F)F)c2)nc1N1CCN(CCO)CC1` [CBK063426]: the “% of control remaining” value came to 76.4954%.
Next, `COc1ccc(Cc2nc(C3CCC3)n(CC3COCCO3)n2)cc1` (stereo not drawn) [CBK307378]: 153.734%; `COC(C(=O)NCc1sc(-c2ccccc2)nc1C)c1ccccc1` (stereo not drawn) [CBK092362]: 115.91%; `Cc1c(C(=O)N2CCC(c3c(C(=O)NC(C)C)sc4ccccc34)C2)[nH]c2ccccc12` (stereo not drawn) [CBK285872]: 120.02%.
Turning to `NC(=O)c1c(NC(=O)CSC2=NCCS2)sc2c1CCCC2` [CBK269989], the “% of control remaining” value turned out to be 107.334%.
In the case of `CN(C)c1ccc(-c2nccnc2NS(=O)(=O)c2cccs2)cc1` [CBK050804], the “% of control remaining” value is recorded as 130.26%.
Next, `c1cncc(-c2cn3ccnc3c(NCC3CC3)n2)c1` [CBK036609]: 118.118%; `COc1cc2c(cc1OC)CN(CCO)CC2` [CBK138322]: 103.649%; `COCC(=O)Nc1ccc(Cl)c(NC(=O)NCCN2CCCC2=O)c1` [CBK306663]: 102.374%.
As to `O=C(CSc1nc2ccccc2s1)OCc1ccc([N+](=O)[O-])cc1` [CBK262547], the “% of control remaining” value is recorded as 122.394%.
As for `c1ccc(CCNc2nccnc2-c2ccncc2)nc1` [CBK037378], the “% of control remaining” value is recorded as 118.2%.
For the compound `COc1ccc(OC)c(NC(=O)c2cnc3scc(C)n3c2=O)c1` [CBK287462], the “% of control remaining” value is listed as 129.237%.
Take `COc1cc(NS(=O)(=O)c2ccc(N/C=C3/CCc4ccccc4C3=O)cc2)nc(OC)n1` [CBK263376]: the “% of control remaining” value is on record as 15.4642%.
Next, `Cc1cc(C2CCCCCN2Cc2c(C)nn(C)c2C)on1` (stereo not drawn) [CBK282967]: 112.979%.
Consider `CCCc1cc(O)nc(SCC(=O)Nc2cc3c(cc2C(C)=O)OCO3)n1` [CBK266144], for which the “% of control remaining” value came to 120.521%.
Next, `NS(=O)(=O)c1ccc(CCNC(=O)c2ccc(Cl)c([N+](=O)[O-])c2)cc1` [CBK264395]: 100%; `O=C(Nc1ccccc1C(=O)NCCN1CCOCC1)c1cccs1` [CBK270077]: 115.597%.
As for `COc1ccc(C2=NN(c3ccc([N+](=O)[O-])cc3)C(=O)/C2=C\c2cccc(OC)c2OC)cc1` [CBK264475], the “% of control remaining” value is 133.763%.
Next, `Cc1nc(CNC(=O)c2nn(-c3cccc(C(C)C)c3)cc2O)no1` [CBK305269]: 105.365%.
`CCCC(=O)N1CCN(Cc2ccc3c(c2)OCO3)CC1` [CBK074367]: the “% of control remaining” value is recorded as 116.723%.
Next, `CCN(CCc1nc2cc(OC)ccc2[nH]1)C(=O)c1ccc(=O)n(C)c1` [CBK307312]: 153.575%; `CCCC(=O)c1ccc2c(c1)CC(N(CCC)CCC)C2` (stereo not drawn) [CBK023971C]: 144.867%.
Next, `COc1ccc(C(=O)/C=C/c2cccs2)c(OC(=O)c2ccc([N+](=O)[O-])cc2)c1` [CBK264926]: 95.2237%.
